For at least one compound, name, drawing or mass did not settle the structure.
Legend:
[1] = test system: C. difficile; assay: MIC broth dilution in standard Brucella broth with blood and hemin; assay type: cell-based, Clostridium difficile; conditions: compared with BHIS experiments
[2] = test system: C. difficile strain VPI 10463 or strain ATCC 9689; assay: 96-well growth inhibition test in BHIS media, optical density readout; assay type: cell-based, Clostridium difficile
Description: Tests were performed in a Coy anaerobic chamber (Coy Labs Grass Lake, Mich.). The compound Puupehenone was dissolved in either methanol or DMSO for testing. Using a 96-well plate, 200 μL of BHIS media was added to 12 wells. One was the control (BHIS media alone). The sequential nine wells have increments of 5 μL of puupehenone. The remaining two wells have no puupehenone but one has 20 μL and another has 40 μL of methanol. These last wells are a separate test to determine if methanol influences the growth of C. difficile. Then 10 μL of C. difficile strain VPI 10463 or strain ATCC 9689 was added to each well except for the control. Trials with DMSO were performed in increments of 2 μL of puupehenone. Effects of puupehenone on C. difficile were tested based on optical density (e.g. OD500 nm, OD600 nm or OD630 nm, inter alia) using an optical reader as is standard in the art. Results

## CC1(C)CCC[C@]2(C)[C@H]3C=C4C=C(O)C(=O)C=C4O[C@@]3(C)CC[C@@H]12 [Puupehenone, puupehenone]
[1]
  effect of blood and hemin in the medium on activity: decreased sensitivity to or activity of the compound
[2]; puupehenone + DMSO (0 μL-well 0.5891, Trial 1)
  antimicrobial activity in MIC tests: inhibition of C. difficile
[2]; puupehenone + MeOH, majority of trials
  antimicrobial activity in MIC tests: potent antimicrobial activity
[2]; puupehenone in DMSO, five-fold dilution
  antimicrobial activity in MIC test: very potent

From US10314813B2, “Antimicrobial compositions for Clostridium difficile” (University of Central Florida Research Foundation, Inc., priority 2017, dated 2019)
